The assay deals with T1, FLAG-tagged CARF (collaborator of alternative reading frame protein) (human), Q9NXV6.
T1 chain: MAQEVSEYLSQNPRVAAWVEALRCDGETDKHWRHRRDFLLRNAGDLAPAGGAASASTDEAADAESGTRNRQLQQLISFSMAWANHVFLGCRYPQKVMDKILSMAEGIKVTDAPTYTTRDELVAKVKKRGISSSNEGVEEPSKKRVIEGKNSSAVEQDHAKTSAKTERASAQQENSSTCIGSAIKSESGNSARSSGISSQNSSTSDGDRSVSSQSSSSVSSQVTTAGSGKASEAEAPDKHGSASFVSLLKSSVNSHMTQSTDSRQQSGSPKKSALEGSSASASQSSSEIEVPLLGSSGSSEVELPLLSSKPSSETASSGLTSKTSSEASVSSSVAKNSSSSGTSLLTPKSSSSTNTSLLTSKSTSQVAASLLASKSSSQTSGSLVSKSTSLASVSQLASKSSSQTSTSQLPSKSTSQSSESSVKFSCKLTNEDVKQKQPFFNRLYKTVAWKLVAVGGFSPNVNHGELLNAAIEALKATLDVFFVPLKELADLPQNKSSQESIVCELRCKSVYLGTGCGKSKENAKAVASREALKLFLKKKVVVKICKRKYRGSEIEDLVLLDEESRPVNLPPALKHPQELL
Description: affinity purification with mass spectrometry; FLAG–CARF complexes from TOCARF cell extract (1 ng/ml doxycycline, 48 h; buffer A: 50 mM Tris-HCl pH 8.0, 150 mM NaCl, 0.5% IGEPAL CA-630) on anti-FLAG M2 agarose, 4 h at 4°C, eluted with FLAG peptide; SDS–PAGE, silver staining, LC-MS/MS; band confirmed by immunoblot with anti-XRN2. To be noted: remark: other sources report otherwise. On the technique in general: In western blotting, separated proteins are transferred to a membrane and probed.

These are yes or no findings as the source states them, for the method shown. Binding seen in cells or lysates may run through a third protein. Here binding means that the protein was enriched with, or labelled near, the bait; the list need not be complete. Tags and fused reporters may be left off the sequences shown.

B1: 5′-3′ exoribonuclease 2 (XRN2), endogenous, Q9H0D6-1 1-950 (enzyme)
chain: MGVPAFFRWLSRKYPSIIVNCVEEKPKECNGVKIPVDASKPNPNDVEFDNLYLDMNGIIHPCTHPEDKPAPKNEDEMMVAIFEYIDRLFSIVRPRRLLYMAIDGVAPRAKMNQQRSRRFRASKEGMEAAVEKQRVREEILAKGGFLPPEEIKERFDSNCITPGTEFMDNLAKCLRYYIADRLNNDPGWKNLTVILSDASAPGEGEHKIMDYIRRQRAQPNHDPNTHHCLCGADADLIMLGLATHEPNFTIIREEFKPNKPKPCGLCNQFGHEVKDCEGLPREKKGKHDELADSLPCAEGEFIFLRLNVLREYLERELTMASLPFTFDVERSIDDWVFMCFFVGNDFLPHLPSLEIRENAIDRLVNIYKNVVHKTGGYLTESGYVNLQRVQMIMLAVGEVEDSIFKKRKDDEDSFRRRQKEKRKRMKRDQPAFTPSGILTPHALGSRNSPGSQVASNPRQAAYEMRMQNNSSPSISPNTSFTSDGSPSPLGGIKRKAEDSDSEPEPEDNVRLWEAGWKQRYYKNKFDVDAADEKFRRKVVQSYVEGLCWVLRYYYQGCASWKWYYPFHYAPFASDFEGIADMPSDFEKGTKPFKPLEQLMGVFPAASGNFLPPSWRKLMSDPDSSIIDFYPEDFAIDLNGKKYAWQGVALLPFVDERRLRAALEEVYPDLTPEETRRNSLGGDVLFVGKHHPLHDFILELYQTGSTEPVEVPPELCHGIQGKFSLDEEAILPDQIVCSPVPMLRDLTQNTVVSINFKDPQFAEDYIFKAVMLPGARKPAAVLKPSDWEKSSNGRQWKPQLGFNRDRRPVHLDQAAFRTLGHVMPRGSGTGIYSNAAPPPVTYQGNLYRPLLRGQAQIPKLMSNMRPQDSWRGPPPLFQQQRFDRGVGAEPLLPWNRMLQTQNAAFQPNQYQMLAGPGGYPPRRDDRGGRQGYPREGRKYPLPPPSGRYNWN
Turning to B1, the binding entry is “binds”.

The values are drawn from PMC4666357.
